# According to PubChem BioAssay AID595 (National Center for Advancing Translational Sciences (NCATS), 2007):
# Among all 71,000 compounds or so, about 310 (0.44%) were called active. The shares of active, inactive and inconclusive entries below differ from those in the screen. The call rests on the fitted dose curve; in most records, active means well fitted curve in either direction with a large enough effect; inconclusive means small, poorly fitted or top-dose-only effect, or another doubt; inactive means flat fitted curve, though single readings scatter. Potencies beside an inconclusive call are fits to weak or partial responses and may not hold up.
# System: Hsp90 C-terminal peptide / TPR2A (Hop) interaction, human
# Test: qHTS Assay for Disrupters of an Hsp90 Co-Chaperone Interaction
# Conditions: AlphaScreen TPR2A-His6 binding biotin-Hsp90 C-terminal peptide; activity change, negative = inhibition: at 57 µM (top of the series) unless noted
# Excerpt: NIH Chemical Genomics Center [NCGC]
# NIH Molecular Libraries Screening Centers Network [MLSCN]
# Hsp90 (heat shock protein 90) is the essential molecular chaperone and it accounts for 1-2% of all cytosolic proteins and is critical for the activity of diverse cellular proteins that are involved in a variety of cellular processes, including development, cell cycle, and steroid hormone signaling. Its client proteins include signaling kinases such as IGF1R, Akt, v-Src, Raf-1; regulators of cell survival such as Bcr-Abl; and transcription factors such as mutated p53, estrogen and progesterone receptors. Hsp90 has emerged as an important target for cancer treatment due to its essential role in maintaining transformation and regulating the function of oncogenic signaling proteins.
# The in vivo function of Hsp90 is regulated by the binding and hydrolysis of ATP at its N-terminal. Geldanamycin binds to ATP site and inhibit Hsp90 function. Geldanamycin and its analogues are under clinical trials in cancer patients.
# This domain contains the binding site for tetratricopeptide repeat (TPR) domains on HOP (Hsp Organizing Protein). TPR is a structural motif used by a significant number of cochaperones by which the in vivo function of Hsp90 is regulated. TPR2A on HOP binds specifically to MEEVD motif of the C-terminal of Hsp90.
# A homogeneous AlphaScreen is developed to assess the interaction between TPR2A and MEEVD motif of the C-terminal of Hsp90 by using the isolated TPR2A domain and a synthesized 20mer Hsp90 C terminal peptide. AlphaScreen is two bead-based proximity-dependent chemical energy transfer luminescent assay platform. TPR2A-His-6 and biotinylated Hsp90 C terminal peptide will bring streptavidin donor beads and nickel chelate acceptor beads to a proximity range (less than 200 nm), and subsequently lead a chemical luminescent reaction upon exciting donor beads with 680 nm laser. Inhibition of TPR2A and MEEVD motif interaction by small molecules could attenuate or abolish this chemical luminescent reaction.
# Counter screening: Biotinylated-His-6 (PerkinElmer) can be utilized as a counter screen, as it serves as a linker to bring streptavidin beads and nickel chelate beads together. The counter screen can exclude alpha screen platform false positives due to small molecules being metal chelators, biotin analogues and imidazole analogues, or due to interfering with oxygen release from donor beads. Such an assay should be utilized to qualify any activity observed in this screen.
# NCGC Assay Protocol Summary:
# The assay was performed on 1536-well white plate (untreated solid bottom). Liquids were dispensed by 1536-well plate washer (Kalypsys, San Diego, CA). Plates were read on EnVision (PerkinElmer, Boston, MA).TPR2A-His6 was produced using a bacteria expression system and purified using a well developed method (Ghosh et al., 2000). Hsp90 C terminal 20-mer peptide with or without an N-terminal biotin group are synthesized using automated solid phase synthesis by the Yale Keck facility. The composition of assay buffer was (in mM) 25 HEPES, 100 KCl, 2 MgCl2 and 2 DTT; 0.1% BSA and 0.01% Tween-20. TPR2A-His6 binding to biotin-Hsp90 will bring streptavidin donor beads and nickel chelate acceptor beads (PerkinElmer) together and can be measured by Alpha reading by EnVision (PerkinElmer). Free Hsp90 blocks biotin-Hsp90 binding to TPR2 and serves as a positive control in the current asssay.
# The assay was performed at room temperature. All compounds were screened as titrations from […] to 46 uM final concentration. The assay was performed in 1536-well format plates (untreated white solid bottom, Corning Inc.) as follows:
# Sequence,Parameter,Value,Description
# 1,Reagent,3 uL TPR2A-His6,Final concentration was 5nM
# 2,Compound,23 nL,Final titration was from 0.7 nM to 46 uM
# 3,Time,15 minutes,Room temperature
# 4,Reagent,1 uL biotin-Hsp90,With and without free Hsp90. Final concentration was 10 nM for biotin-Hsp90 and 10uM for free Hsp90.
# 5,Time,1 hour,Room temperature
# […]
# On the % scale 0 is the no-effect control and ±100 the full control effect; potency means the concentration at half of the fitted maximal effect.
SMILES,"activity change, negative = inhibition",Potency
Nc1nonc1-n1nnc(C(=O)O)c1-c1cccs1,inconclusive: 48.7%,
COc1ccc(NC(=O)c2ccc(S(=O)(=O)N(C)C)cc2)cc1OC,inconclusive: 44.5%,
CCCCC(=O)Nc1ccc2c(c1)nc1n2CCSC1,inactive,
Cn1c(=O)cc(OCCCC(=O)N2CCN(Cc3ccc4c(c3)OCO4)CC2)c2ccccc21,inconclusive: 34.2%,
COC(=O)Cn1c(CN2CCN(c3ccc(F)cc3)CC2)nc2c1c(=O)n(C)c(=O)n2C,,"inconclusive: 15.8 µM [inhibitor, partial curve]"
CN(CCOc1ccc(Cl)cc1)c1ccc(S(=O)(=O)N2CCCCC2)cn1,,"inconclusive: 25.1 µM [activator, single point]"
O=c1c(O)c(-c2ccc(O)cc2O)oc2cc(O)cc(O)c12,,"inconclusive: 31.6 µM [inhibitor, partial curve]"
Cn1cc(/C(Cc2ccccc2)=N\O)c2ccccc21,inactive,
O=C(NCCN1CCOCC1)c1cc2ccccc2o1,inactive,
N#CCCn1c(=O)c(CCc2ccccc2)nc2cnc(Oc3cccc(Cl)c3)nc21,inactive,
O=C(CSCSCC(=O)NCC1CCCO1)NCC1CCCO1 (configuration not stated),inconclusive: 46.8%,
CCOC(=O)CSc1nc2cc3c(cc2cc1C#N)OCO3,inconclusive: 49.6%,
CCCc1cc(C(=O)N2CCN(c3ccccc3C)CC2)cs1,inconclusive: 144%,
COC(=O)c1c(NC(=O)c2cccs2)sc2c1CCC(C)C2 (configuration not stated),,"inconclusive: 7.94 µM [activator, partial curve]"
O=C1CCCCCC1C1(O)C(=O)Nc2ccccc21 (configuration not stated),inactive,
CCOc1cccc(-c2nc3cc(C)ccc3o2)c1,,"inconclusive: 20 µM [activator, single point]"
NC([N-]/N=C/c1ccccn1)=[S]=[Fe].O=S(=O)(O)O,,active: 1.26 µM
Cc1csc(NC(=O)CSc2nnc(-c3ccoc3C)n2Cc2ccco2)n1,inconclusive: 27.8%,
Nc1nnc(-c2ccccc2)c(-c2ccccc2)n1,inactive,
COCCNC(=O)c1cc(Br)ccc1Cl,inconclusive: 45.9%,
COC(=O)[C@@]1(Cc2ccc(F)cc2)[C@@H]2C(=CC(=O)[C@H]2CC(=O)C(=O)N(C)C)CN1C(=O)c1ccccc1,inactive,
CSc1ccc(C2Nc3ccccc3-c3cc(C)nn32)cc1 (configuration not stated),,"inconclusive: 31.6 µM [activator, single point]"
Cc1ccc(SCCNC(=O)C(CO)(CO)CO)cc1,inconclusive: 46.5%,
CN1CCN(c2ncnc3ccc(-c4ccccc4Cl)cc23)CC1,inactive,
O=C(O)c1sccc1S(=O)(=O)c1ccccc1,inconclusive: 50.8%,
Cn1ccnc1-c1nc2ccccc2[nH]c1=O,,"inconclusive: 25.1 µM [inhibitor, single point]"

SMILES,"activity change, negative = inhibition",Potency
COc1ccccc1CN1CC2(CCN(S(C)(=O)=O)CC2)C1,inactive,
O=C1C(Cl)=C(N2CCCCC2)C(=O)N1c1ccccc1Cl,,"inconclusive: 20 µM [activator, single point]"
CCOC(=O)C1=C(C)NC(=O)NC1c1ccc(OC(C)C(=O)O)c(OC)c1 (configuration not stated),,active: 12.6 µM
COc1ccccc1-c1cc(C(=O)NCc2ccccc2)no1,inconclusive: 101%,
CC(C)(C)C(=O)/C=C(\N)c1ccccn1,inconclusive: 48.9%,
CN(CC(=O)NCc1ccccn1)S(=O)(=O)c1ccc(Cl)cc1,,"inconclusive: 31.6 µM [inhibitor, single point]"
Nc1nc(-c2ccco2)c(-c2ccco2)s1,,"inconclusive: 31.6 µM [inhibitor, single point]"
O=C(O)CC/C=C\CC[C@H]1[C@@H](N2CCCCC2)[C@@H](O)C[C@@H]1OCc1ccc(-c2ccccc2)cc1,inactive,
Cc1cccc(CNc2ccnc(-c3cccc(C#N)c3)n2)c1,,"inconclusive: 39.8 µM [activator, single point]"
NC(=O)c1c(NC(=O)c2cc3ccccc3o2)sc2c1CCC2,inactive,
O=C(O)c1c(Br)c(Br)c(Br)c(Br)c1C1c2ccc(O)cc2Oc2cc(O)ccc21,,"inconclusive: 3.16 µM [inhibitor, partial curve]"
Nc1c(C(=O)NCC2CCCO2)c2nc3ccccc3nc2n1-c1ccccc1 (configuration not stated),,"inconclusive: 25.1 µM [activator, single point]"
O=S(=O)(O)c1ccc2cc(N=Nc3cc(S(=O)(=O)O)c4cccnc4c3O)ccc2c1,,"inconclusive: 3.16 µM [inhibitor, partial curve]"
COc1ccc(-n2c(=O)c(-c3cccs3)nc3cnc(Oc4ccccc4)nc32)cc1,inactive,
O=C(COC(=O)c1cccc(S(=O)(=O)N2CCN(c3ccccc3)CC2)c1)NCc1ccco1,inconclusive: 36.6%,
CN(Cc1ccccc1)S(=O)(=O)c1ccc(C(=O)Nc2nnc(C3CC3)o2)cc1,,"inconclusive: 25.1 µM [inhibitor, single point]"
Cc1cc(C(=O)OCc2nc3ccccc3s2)c(C)o1,,"inconclusive: 39.8 µM [activator, single point]"
O=C(Oc1ccc2c(c1)OCC2=O)c1ccccc1,inconclusive: 45.5%,
O=C(NCCc1ccco1)c1nn(Cc2ccccc2)c(=O)c2ccccc12,inactive,
O=C(O)CSc1ccc([N+](=O)[O-])cc1[N+](=O)[O-],inactive: 0.309% [at 11 µM],
COc1cccc(C(=O)NC2CC3CCCC(C2)N3CC(=O)Nc2ccc(N(C)C)cc2)c1 (configuration not stated),,"inconclusive: 25.1 µM [inhibitor, single point]"
CN(C)c1nc(N(C)C)nc(N(C)C)n1,inconclusive: 68.7%,
CC(=O)NC(CCS(C)(=O)=O)C(=O)Nc1ccc(F)cc1Cl (configuration not stated),inconclusive: 39.5%,
Cc1ccc(Nc2cc(C)nn2-c2nc(C)cc(=O)[nH]2)cc1,,"inconclusive: 31.6 µM [inhibitor, single point]"
O=C(OCc1nc2ccccc2s1)c1ccc(Br)s1,,"inconclusive: 31.6 µM [activator, single point]"
CN1C(=O)c2ccccc2C(C(=O)O)C1c1cccc(F)c1 (configuration not stated),inconclusive: 36.4%,

# Look-ups from above.
# Value of `COc1ccccc1CN1CC2(CCN(S(C)(=O)=O)CC2)C1` under activity change, negative = inhibition: inactive
# Value of `O=S(=O)(O)c1ccc2cc(N=Nc3cc(S(=O)(=O)O)c4cccnc4c3O)ccc2c1` under Potency: inconclusive: 3.16 µM [inhibitor, partial curve]
